Assay results published in the supplement of paper PMC10849652.
The other results are listed elsewhere or left out.

Sequences of proteins named here, by UniProt entry; tags and fusion partners are left off. A change or cut given only in a name is not applied to a line headed by its entry.
UniProt P83436: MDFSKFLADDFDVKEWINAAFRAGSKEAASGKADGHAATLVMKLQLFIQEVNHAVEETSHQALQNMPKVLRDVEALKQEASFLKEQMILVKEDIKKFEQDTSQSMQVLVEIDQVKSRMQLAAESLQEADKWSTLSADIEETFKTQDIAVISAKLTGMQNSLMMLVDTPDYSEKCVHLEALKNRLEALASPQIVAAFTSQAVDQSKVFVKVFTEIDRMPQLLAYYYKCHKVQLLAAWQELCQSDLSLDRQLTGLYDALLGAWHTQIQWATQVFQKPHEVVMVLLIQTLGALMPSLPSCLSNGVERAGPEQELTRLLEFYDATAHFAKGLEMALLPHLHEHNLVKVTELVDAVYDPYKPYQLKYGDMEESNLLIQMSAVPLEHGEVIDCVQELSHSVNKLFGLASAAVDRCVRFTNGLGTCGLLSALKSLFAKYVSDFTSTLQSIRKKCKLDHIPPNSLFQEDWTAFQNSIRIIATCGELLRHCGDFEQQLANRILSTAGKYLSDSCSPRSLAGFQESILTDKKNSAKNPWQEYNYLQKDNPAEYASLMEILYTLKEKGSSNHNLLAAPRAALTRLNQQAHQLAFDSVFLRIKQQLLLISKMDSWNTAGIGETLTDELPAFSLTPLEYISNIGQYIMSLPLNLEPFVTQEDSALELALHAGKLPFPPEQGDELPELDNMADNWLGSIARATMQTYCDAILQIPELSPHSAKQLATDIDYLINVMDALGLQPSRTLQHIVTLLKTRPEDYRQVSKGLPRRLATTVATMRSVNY
UniProt Q9NYJ1, whole entry, looked up: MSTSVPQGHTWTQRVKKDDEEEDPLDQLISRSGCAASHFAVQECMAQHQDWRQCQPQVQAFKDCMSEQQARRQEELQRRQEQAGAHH
UniProt P21964: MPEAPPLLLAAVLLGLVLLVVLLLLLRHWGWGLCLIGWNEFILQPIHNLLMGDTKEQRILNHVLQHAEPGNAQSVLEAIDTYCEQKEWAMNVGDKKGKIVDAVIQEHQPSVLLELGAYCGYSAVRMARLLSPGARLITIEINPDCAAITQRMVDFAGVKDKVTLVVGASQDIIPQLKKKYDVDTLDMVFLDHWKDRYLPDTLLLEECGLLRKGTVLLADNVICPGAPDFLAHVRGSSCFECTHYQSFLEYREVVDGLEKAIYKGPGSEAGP
UniProt Q9UBL6: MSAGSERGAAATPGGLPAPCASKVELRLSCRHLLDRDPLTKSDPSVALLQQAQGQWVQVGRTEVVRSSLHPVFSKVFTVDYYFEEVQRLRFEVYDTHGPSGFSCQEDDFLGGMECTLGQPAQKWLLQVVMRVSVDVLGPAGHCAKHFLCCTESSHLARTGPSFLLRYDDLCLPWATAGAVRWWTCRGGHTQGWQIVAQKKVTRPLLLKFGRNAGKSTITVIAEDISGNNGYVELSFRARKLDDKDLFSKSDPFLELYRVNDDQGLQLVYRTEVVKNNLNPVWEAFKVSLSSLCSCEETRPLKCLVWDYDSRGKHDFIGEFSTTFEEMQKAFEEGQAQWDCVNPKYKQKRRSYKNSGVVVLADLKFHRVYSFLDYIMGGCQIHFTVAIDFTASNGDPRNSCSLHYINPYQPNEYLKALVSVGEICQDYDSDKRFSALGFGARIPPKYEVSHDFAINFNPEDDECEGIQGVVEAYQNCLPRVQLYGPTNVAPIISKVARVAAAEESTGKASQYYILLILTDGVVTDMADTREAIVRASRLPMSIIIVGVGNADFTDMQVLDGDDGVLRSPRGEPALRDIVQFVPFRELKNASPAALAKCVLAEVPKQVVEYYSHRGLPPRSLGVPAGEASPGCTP
UniProt O14548: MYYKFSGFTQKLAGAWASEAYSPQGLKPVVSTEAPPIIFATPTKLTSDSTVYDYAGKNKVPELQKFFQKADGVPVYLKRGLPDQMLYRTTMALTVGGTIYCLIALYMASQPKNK
UniProt Q5RI15: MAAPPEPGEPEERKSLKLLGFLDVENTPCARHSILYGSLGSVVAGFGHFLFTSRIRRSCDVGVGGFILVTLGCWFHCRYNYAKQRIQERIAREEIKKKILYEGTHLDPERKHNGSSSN
UniProt Q9Y2R0: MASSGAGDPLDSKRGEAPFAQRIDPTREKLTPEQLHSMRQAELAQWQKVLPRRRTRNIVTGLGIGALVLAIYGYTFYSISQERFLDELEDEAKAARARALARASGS
UniProt Q6P4Q7: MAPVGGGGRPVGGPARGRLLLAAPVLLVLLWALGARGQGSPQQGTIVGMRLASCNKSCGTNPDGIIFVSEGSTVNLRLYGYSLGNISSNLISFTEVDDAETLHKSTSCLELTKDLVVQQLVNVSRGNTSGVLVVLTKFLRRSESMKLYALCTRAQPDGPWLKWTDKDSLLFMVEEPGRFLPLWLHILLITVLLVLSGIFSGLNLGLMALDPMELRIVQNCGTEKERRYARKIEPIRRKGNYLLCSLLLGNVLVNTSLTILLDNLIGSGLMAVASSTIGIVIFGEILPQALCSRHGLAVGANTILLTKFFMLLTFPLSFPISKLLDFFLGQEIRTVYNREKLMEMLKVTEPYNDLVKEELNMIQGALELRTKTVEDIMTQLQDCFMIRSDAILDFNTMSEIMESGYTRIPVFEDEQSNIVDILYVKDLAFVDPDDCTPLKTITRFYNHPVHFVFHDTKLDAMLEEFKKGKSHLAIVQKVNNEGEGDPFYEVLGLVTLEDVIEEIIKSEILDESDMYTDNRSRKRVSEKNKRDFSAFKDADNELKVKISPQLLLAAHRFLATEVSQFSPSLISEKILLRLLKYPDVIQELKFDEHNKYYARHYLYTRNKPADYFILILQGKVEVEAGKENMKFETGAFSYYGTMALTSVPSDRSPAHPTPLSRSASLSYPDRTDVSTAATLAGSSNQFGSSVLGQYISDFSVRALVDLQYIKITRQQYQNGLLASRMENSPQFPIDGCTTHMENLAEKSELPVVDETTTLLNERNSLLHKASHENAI
UniProt Q92828: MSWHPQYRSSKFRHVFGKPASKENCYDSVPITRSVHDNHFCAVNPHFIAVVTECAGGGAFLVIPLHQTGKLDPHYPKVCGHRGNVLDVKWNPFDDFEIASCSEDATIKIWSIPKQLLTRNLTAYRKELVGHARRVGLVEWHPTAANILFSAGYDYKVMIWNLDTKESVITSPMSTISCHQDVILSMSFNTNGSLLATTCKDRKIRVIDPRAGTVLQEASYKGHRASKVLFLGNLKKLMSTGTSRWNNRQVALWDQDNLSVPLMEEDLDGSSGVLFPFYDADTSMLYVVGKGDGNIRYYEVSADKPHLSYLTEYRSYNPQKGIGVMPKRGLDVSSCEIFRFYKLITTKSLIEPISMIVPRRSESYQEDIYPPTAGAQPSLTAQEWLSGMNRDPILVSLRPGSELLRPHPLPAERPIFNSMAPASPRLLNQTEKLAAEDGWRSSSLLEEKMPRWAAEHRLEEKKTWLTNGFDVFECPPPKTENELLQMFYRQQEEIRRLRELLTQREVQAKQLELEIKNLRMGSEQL
UniProt Q96BR5: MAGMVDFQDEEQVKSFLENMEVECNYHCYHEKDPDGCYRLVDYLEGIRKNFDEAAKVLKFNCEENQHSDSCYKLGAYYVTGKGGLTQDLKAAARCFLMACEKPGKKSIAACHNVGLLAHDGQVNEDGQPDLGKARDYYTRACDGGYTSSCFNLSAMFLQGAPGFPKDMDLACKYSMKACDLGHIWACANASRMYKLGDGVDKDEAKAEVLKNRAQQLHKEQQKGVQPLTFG
UniProt Q86VX2, whole entry, looked up: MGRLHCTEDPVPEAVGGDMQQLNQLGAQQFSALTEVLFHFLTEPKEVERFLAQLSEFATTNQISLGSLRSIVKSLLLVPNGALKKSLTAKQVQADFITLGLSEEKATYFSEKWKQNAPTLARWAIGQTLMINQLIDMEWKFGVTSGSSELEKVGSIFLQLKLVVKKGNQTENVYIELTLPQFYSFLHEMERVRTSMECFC
UniProt Q9Y646: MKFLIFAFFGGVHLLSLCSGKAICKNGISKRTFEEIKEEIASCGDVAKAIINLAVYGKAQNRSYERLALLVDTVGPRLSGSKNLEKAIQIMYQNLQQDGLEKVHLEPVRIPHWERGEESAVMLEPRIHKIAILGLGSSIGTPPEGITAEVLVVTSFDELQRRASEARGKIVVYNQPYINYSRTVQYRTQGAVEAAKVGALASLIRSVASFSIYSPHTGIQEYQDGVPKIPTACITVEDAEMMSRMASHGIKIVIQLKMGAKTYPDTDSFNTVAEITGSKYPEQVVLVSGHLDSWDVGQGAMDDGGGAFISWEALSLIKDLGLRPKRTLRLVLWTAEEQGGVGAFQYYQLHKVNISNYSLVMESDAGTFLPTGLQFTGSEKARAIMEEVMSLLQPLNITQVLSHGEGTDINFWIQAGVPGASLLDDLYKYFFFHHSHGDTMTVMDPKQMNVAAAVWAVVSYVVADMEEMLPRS
UniProt Q9H9Q2: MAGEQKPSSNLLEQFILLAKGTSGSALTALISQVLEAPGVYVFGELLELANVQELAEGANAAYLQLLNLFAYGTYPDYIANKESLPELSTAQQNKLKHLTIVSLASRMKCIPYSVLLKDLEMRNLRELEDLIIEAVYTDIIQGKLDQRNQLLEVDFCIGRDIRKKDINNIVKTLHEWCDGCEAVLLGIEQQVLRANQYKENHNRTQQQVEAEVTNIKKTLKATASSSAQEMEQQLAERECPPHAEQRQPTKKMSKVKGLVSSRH
UniProt P15954, whole entry, looked up: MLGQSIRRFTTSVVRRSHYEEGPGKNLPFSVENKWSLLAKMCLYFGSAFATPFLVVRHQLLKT
UniProt Q96KP4: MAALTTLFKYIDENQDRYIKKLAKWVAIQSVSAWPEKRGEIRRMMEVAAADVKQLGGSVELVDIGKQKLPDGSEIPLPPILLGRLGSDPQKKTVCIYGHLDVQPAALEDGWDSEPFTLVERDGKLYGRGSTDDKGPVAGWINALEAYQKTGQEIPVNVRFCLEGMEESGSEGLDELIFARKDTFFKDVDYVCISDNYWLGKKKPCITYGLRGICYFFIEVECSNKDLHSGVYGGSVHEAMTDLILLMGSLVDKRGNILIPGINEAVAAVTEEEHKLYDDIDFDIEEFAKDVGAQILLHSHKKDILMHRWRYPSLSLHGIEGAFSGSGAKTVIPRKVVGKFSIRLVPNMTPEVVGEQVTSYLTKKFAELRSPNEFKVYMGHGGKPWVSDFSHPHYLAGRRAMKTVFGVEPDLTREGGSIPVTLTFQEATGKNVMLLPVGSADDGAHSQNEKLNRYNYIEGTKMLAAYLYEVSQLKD

How the values were obtained:
Experiment in all cases: log2 fold change, soluble protein after heating vs DMSO (PISA); higher = thermal stabilisation; K562 lysate, 10 uM; active = over 0.2 and 3.5 SD of the protein, either way, in both replicates (recomputed)
erlotinib = compound: C#Cc1cccc(Nc2ncnc3cc(OCCOC)c(OCCOC)cc23)c1 [erlotinib]
Outline: (§1)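 K562 pellets were dounce-homogenised in PBS pH 7.4 containing 1 mM MgCl2, and the crude extract, at 1 mg/mL protein, was exposed to 10 μM compound for 30 min. Aliquots were heated for 3 min across 48°C-58°C, pooled, brought to 0.5% NP-40 at 4°C and spun at 21,000xg for 90 min, with the supernatant taken as soluble protein. TMTpro 16plex LC-MS/MS with equalised channel sums quantified that protein. Values are log-two fold changes in thermal stability relative to solvent controls, taken from duplicates.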

[1] = compound: C/C(=N\NC(=O)C1=CC(=CC=C1)S(=O)(=O)N2CCOCC2)/C3=C(C=CC(=C3)Cl)O
Outline: as §1

[2] = compound: C1=CC(=CC=C1C2=NC3=C(N2)C=C(C=C3)C(=O)N)OC4=CC=C(C=C4)Cl
Outline: as §1

[3] = compound: C1=CC2=C(C=CC(=C2)/C=C\3/C(=O)NC(=NCC4=CC=CS4)S3)N=C1
Outline: as §1

[4] = compound: C1=CC2=NC=CN=C2C=C1/C=C/3\C(=O)NC(=O)S3
Outline: as §1

[5] = compound: C1=CC=C(C=C1)C2=NC(=C(N2)C3=CC=NC=C3)C4=CC(=C(C=C4)Cl)O
Outline: as §1

[6] = compound: C1=CC=C2C(=C1)C3=NNC4=CC=CC(=C43)C2=O
Outline: as §1

[7] = compound: C1CCN(C1)C(=O)NC2=CC=CC(=C2)NC3=NC=C(C(=N3)NCCC4=CN=CN4)Br
Outline: as §1

[8] = compound: C1CN(CCC1(CC2=CC=C(C=C2)Cl)N)C3=NC=NC4=C3C=CN4
Outline: as §1

IRAK-1-4 Inhibitor I = compound: C1COCCN1CCN2C3=CC=CC=C3N=C2NC(=O)C4=CC(=CC=C4)[N+](=O)[O-] [IRAK-1-4 Inhibitor I]
Outline: as §1

ibrutinib = compound: C=CC(=O)N1CCC[C@@H](n2nc(-c3ccc(Oc4ccccc4)cc3)c3c(N)ncnc32)C1 [ibrutinib]
Outline: as §1

[9] = compound: CC(=O)c1cnc2ccc(-c3cc(Cl)c(O)c(Cl)c3)nc2c1N[C@H]1CC[C@H](CN(C)C)CC1
Outline: as §1

ralimetinib = compound: CC(C)(C)Cn1c(N)nc2ccc(-c3[nH]c(C(C)(C)C)nc3-c3ccc(F)cc3)nc21 [ralimetinib]
Outline: as §1

[10] = compound: CC(C)(O)CC(=O)NCCn1ccc2ncnc(Nc3ccc(Oc4cccc(C(F)(F)F)c4)c(Cl)c3)c21
Outline: as §1

[11] = compound: CC(C)C1=C2N=C(C=C(N2N=C1)NCC3=CC=CC=C3)NCCCCCCN
Outline: as §1

[12] = compound: CC1=C(C(CC(=O)N1)C2=CC=C(C=C2)C(F)(F)F)C(=O)NC3=C(C=C4C(=C3)C=NN4)F
Outline: as §1

[13] = compound: CC1=C(C2=C(C=C1)C(=O)C3=CC=CC=C3N2CCCN)C
Outline: as §1

[14] = compound: CC1=C(C=C(C=C1)NC(=O)C2=CC(=CC=C2)C(C)(C)C#N)NC3=CC4=C(C=C3)N=CN(C4=O)C
Outline: as §1

[15] = compound: CC1=C(C=C(C=C1)NC(=O)C2=CC(=CC=C2)N(C)C)NC(=O)C3=CC=C(C=C3)O
Outline: as §1

[16] = compound: CC1=CC=C(C=C1)SC2=C3C=C(SC3=CN=C2)C(=O)N
Outline: as §1

Measured: log2 fold change

COG7 (UniProt P83436)
inactive: erlotinib 0.026 | [1] -0.007 | [2] -0.025 | [3] 0.034 | [4] 0.012 | [5] 0.006 | [6] -0.037 | [7] -0.022 | [8] 0.05 | IRAK-1-4 Inhibitor I -0.039 | ibrutinib -0.04 | [9] -0.012 | ralimetinib 0.03 | [10] 0.006 | [11] -0.049 | [12] -0.034 | [13] -0.001 | [14] -0.029 | [15] 0.058 | [16] -0.007

COA4 isoform 2 (UniProt Q9NYJ1)
inactive: erlotinib 0.105 | [1] 0.041 | [2] -0.038 | [3] 0.089 | [4] -0.048 | [5] 0.019 | [6] 0.035 | [7] -0.079 | [8] 0.047 | IRAK-1-4 Inhibitor I -0.035 | ibrutinib -0.016 | [9] -0.109 | ralimetinib -0.015 | [10] 0.022 | [11] -0.064 | [12] 0.024 | [13] -0.024 | [14] -0.001 | [15] 0.025 | [16] 0.072

COMT (UniProt P21964)
inactive: erlotinib 0.031 | [1] -0.03 | [2] -0.01 | [3] 0.011 | [4] -0.029 | [5] 0.001 | [6] 0.043 | [7] -0.024 | [8] -0.033 | IRAK-1-4 Inhibitor I 0.019 | ibrutinib 0.01 | [9] 0.019 | ralimetinib 0.01 | [10] 0.016 | [11] 0.009 | [12] -0.045 | [13] 0.002 | [14] 0.031 | [15] 0.019 | [16] 0.01

CPNE7 (UniProt Q9UBL6)
inactive: erlotinib -0.023 | [1] -0.033 | [2] 0.009 | [3] -0.001 | [4] 0.016 | [5] 0.012 | [6] -0.05 | [7] -0.038 | [8] 0.086 | IRAK-1-4 Inhibitor I 0.076 | ibrutinib 0.004 | [9] 0.015 | ralimetinib -0.011 | [10] -0.069 | [11] -0.052 | [12] 0.025 | [13] -0.017 | [14] 0.016 | [15] -0.021 | [16] 0.019

COX7A2L (UniProt O14548)
inactive: erlotinib -0.008 | [1] -0.024 | [2] -0.009 | [3] 0.082 | [4] 0.024 | [5] 0.017 | [6] 0.011 | [7] -0.05 | [8] 0.012 | IRAK-1-4 Inhibitor I -0.007 | ibrutinib 0.098 | [9] -0.036 | ralimetinib 0.003 | [10] -0.069 | [11] -0.056 | [12] -0.043 | [13] 0.009 | [14] 0.104 | [15] 0.021 | [16] 0.021

COX20 isoform 2 (UniProt Q5RI15)
inactive: erlotinib 0.022 | [1] 0.004 | [2] -0.018 | [3] -0.001 | [4] -0.129 | [5] 0.016 | [6] -0.036 | [7] -0.09 | [8] 0.034 | IRAK-1-4 Inhibitor I 0.048 | ibrutinib 0.28 | [9] 0.017 | ralimetinib 0.084 | [10] 0.032 | [11] -0.003 | [12] -0.007 | [13] -0.04 | [14] 0.003 | [15] 0.001 | [16] -0.023

COA3 (UniProt Q9Y2R0)
inactive: erlotinib -0.049 | [1] -0.006 | [2] 0.066 | [3] 0.025 | [4] 0.015 | [5] 0 | [6] -0.034 | [7] -0.022 | [8] 0.018 | IRAK-1-4 Inhibitor I 0.017 | ibrutinib 0.089 | [9] -0.028 | ralimetinib -0.022 | [10] -0.06 | [11] -0.01 | [12] -0.004 | [13] -0.018 | [14] 0.008 | [15] 0.008 | [16] -0.008

CNNM4 (UniProt Q6P4Q7)
inactive: erlotinib -0.07 | [1] 0.08 | [2] -0.074 | [3] 0.048 | [4] 0.017 | [5] -0.079 | [6] -0.033 | [7] 0.05 | [8] 0.157 | IRAK-1-4 Inhibitor I -0.032 | ibrutinib 0.039 | [9] -0.034 | ralimetinib 0.124 | [10] -0.079 | [11] 0.035 | [12] -0.248 | [13] -0.017 | [14] 0.131 | [15] 0.007 | [16] -0.002

Quoted from the listing (two entries):
COA3 (UniProt Q9Y2R0)
inactive: erlotinib -0.049 | [1] -0.006 | [2] 0.066 | [3] 0.025 | [4] 0.015 | [5] 0 | [6] -0.034 | [7] -0.022 | [8] 0.018 | IRAK-1-4 Inhibitor I 0.017 | ibrutinib 0.089 | [9] -0.028 | ralimetinib -0.022 | [10] -0.06 | [11] -0.01 | [12] -0.004 | [13] -0.018 | [14] 0.008 | [15] 0.008 | [16] -0.008

CNNM4 (UniProt Q6P4Q7)
inactive: erlotinib -0.07 | [1] 0.08 | [2] -0.074 | [3] 0.048 | [4] 0.017 | [5] -0.079 | [6] -0.033 | [7] 0.05 | [8] 0.157 | IRAK-1-4 Inhibitor I -0.032 | ibrutinib 0.039 | [9] -0.034 | ralimetinib 0.124 | [10] -0.079 | [11] 0.035 | [12] -0.248 | [13] -0.017 | [14] 0.131 | [15] 0.007 | [16] -0.002

Carrying on.

CORO2A (UniProt Q92828)
inactive: erlotinib -0.118 | [1] 0.033 | [2] -0.082 | [3] 0.097 | [4] -0.025 | [5] 0.013 | [6] -0.047 | [7] -0.089 | [8] -0.029 | IRAK-1-4 Inhibitor I -0.041 | ibrutinib 0.076 | [9] -0.006 | ralimetinib 0.007 | [10] 0.02 | [11] 0.049 | [12] -0.016 | [13] -0.113 | [14] -0.002 | [15] 0.009 | [16] -0.01

COA7 (UniProt Q96BR5)
inactive: erlotinib -0.013 | [1] 0.029 | [2] -0.034 | [3] -0.015 | [4] -0.006 | [5] 0.05 | [6] 0.019 | [7] 0.025 | [8] -0.041 | IRAK-1-4 Inhibitor I -0.021 | ibrutinib 0.087 | [9] 0.015 | ralimetinib -0.002 | [10] 0.045 | [11] 0.009 | [12] -0.009 | [13] 0.001 | [14] -0.044 | [15] 0.032 | [16] 0.012

COMMD7 (UniProt Q86VX2)
inactive: erlotinib -0.015 | [1] -0.082 | [2] 0.035 | [3] -0.02 | [4] 0.018 | [5] 0.014 | [6] 0.017 | [7] -0.033 | [8] 0.039 | IRAK-1-4 Inhibitor I 0.03 | ibrutinib 0.018 | [9] -0.007 | ralimetinib -0.001 | [10] -0.048 | [11] 0.027 | [12] -0.018 | [13] -0.036 | [14] 0.029 | [15] 0.003 | [16] 0.021

CNOT6L (UniProt Q96LI5)
inactive: erlotinib -0.011 | [1] 0 | [2] 0.007 | [3] -0.02 | [4] 0.007 | [5] -0.04 | [6] -0.042 | [7] -0.018 | [8] -0.012 | IRAK-1-4 Inhibitor I 0.002 | ibrutinib 0.02 | [9] 0.015 | ralimetinib 0.037 | [10] -0.06 | [11] -0.05 | [12] 0.064 | [13] -0.07 | [14] 0.008 | [15] -0.041 | [16] 0.016

CPQ (UniProt Q9Y646)
inactive: erlotinib -0.048 | [1] -0.29 | [2] -0.006 | [3] 0.011 | [4] 0.018 | [5] 0.017 | [6] 0.053 | [7] 0.014 | [8] -0.015 | IRAK-1-4 Inhibitor I 0.026 | ibrutinib 0.046 | [9] -0.028 | ralimetinib -0.004 | [10] -0.031 | [11] -0.026 | [12] 0.065 | [13] -0.024 | [14] 0.006 | [15] -0.07 | [16] 0.008

COPS7B isoform 3 (UniProt Q9H9Q2)
inactive: erlotinib 0.007 | [1] -0.03 | [2] 0.069 | [3] 0.019 | [4] -0.007 | [5] 0.02 | [6] 0 | [7] 0.045 | [8] -0.009 | IRAK-1-4 Inhibitor I -0.005 | ibrutinib 0.002 | [9] -0.039 | ralimetinib -0.009 | [10] -0.032 | [11] -0.013 | [12] -0.007 | [13] 0.017 | [14] 0.032 | [15] -0.016 | [16] -0.051

COX7C (UniProt P15954)
inactive: erlotinib -0.055 | [1] -0.004 | [2] -0.064 | [3] 0.003 | [4] 0.046 | [5] 0.038 | [6] 0.027 | [7] -0.177 | [8] 0.153 | IRAK-1-4 Inhibitor I -0.015 | ibrutinib -0.11 | [9] -0.004 | ralimetinib 0.062 | [10] -0.029 | [11] 0.037 | [12] -0.038 | [13] -0.033 | [14] 0.012 | [15] -0.065 | [16] -0.001

CNDP2 (UniProt Q96KP4)
inactive: erlotinib -0.016 | [1] 0.004 | [2] 0.02 | [3] -0.038 | [4] -0.009 | [5] -0.022 | [6] 0.007 | [7] 0.039 | [8] 0.041 | IRAK-1-4 Inhibitor I 0.051 | ibrutinib 0.013 | [9] -0.027 | ralimetinib 0.024 | [10] -0.049 | [11] -0.011 | [12] -0.005 | [13] -0.02 | [14] 0.023 | [15] 0 | [16] -0.035
